# According to paper PMC12040169 (PLOS Biology, 2025):
# This is one part of the list.
# Test system: T1, CTL2-GFP (C. trachomatis L2/434/Bu, GFP-expressing)
# T1 construct: L2/434/Bu, GFP-expressing
# Design: species or system HeLa; Intracellular C. trachomatis growth in HeLa cells, bulk GFP fluorescence relative to DMSO
# Conditions: bulk GFP, single well; 28.5 h, 10 µM; inhibitor
row,Structure (SMILES),% of control remaining
1,Nc1nonc1C(=O)NCCNS(=O)(=O)c1ccc(F)cc1 [CBK265980],122.291%
2,CCCn1c(O)cc(=O)nc1SCC(=O)N1CCCc2ccccc21 [CBK304977],130.649%
3,Cc1nnc(N2C(=O)c3oc4ccccc4c(=O)c3C2c2ccc(OCc3ccccc3)cc2)s1 (stereo not shown) [CBK266287],156.154%
4,Cc1cc(C(=O)N2CCC(C(=O)NC(c3cnccn3)c3ccccc3C)CC2)no1 (stereo not shown) [CBK059810],102.074%
5,CC(=O)NCCn1nc(-c2ccccc2F)cc1CN(C)C [CBK283473],119.407%
6,O=C(O)/C=C/c1cccc(-c2cncc(NCCc3ccncc3)n2)c1 [CBK065358],160.534%
7,CCOc1cccc(CNc2ccc(O)cc2)c1OCc1ccc(Cl)cc1Cl [CBK074528],76.4036%
8,COc1ccc(C(NC(=O)C2CCN(Cc3ccc4c(c3)OCO4)CC2)c2ccccc2C)cn1 (stereo not shown) [CBK081453T],117.907%
9,Cn1cc(C(=O)NC2CCN(C(=O)c3ccc(C#N)cc3)CC2)cn1 [CBK305683],94.7616%
10,C=Cn1cccc1C(=O)N1C2CCC1c1cnc3cc(C)nn3c1C2 (stereo not shown) [CBK284382],119.097%
11,Cc1cc2ccccc2n1CCC(=O)NC1CCCOC1 (stereo not shown) [CBK283152],110.416%
12,Cc1cc(OCC(=O)N(C)C)c2c3c(c(=O)oc2c1)CCCC3 [CBK307189],106.714%
13,O=C(N/N=C/c1cc2c(cc1Cl)OCO2)C(O)c1ccccc1 (stereo not shown) [CBK262177],100.487%
14,Cc1ccc(-c2nc3ccccc3[nH]2)cc1NC(=O)CSc1ccc(Cl)cc1 [CBK268942],166.038%
15,Cc1ccc2[nH]c(-c3ccccc3NC(=O)CCCC(=O)O)nc2c1 [CBK295154],168.007%
16,CCOC(=O)Nc1ccc2c(c1)N(C(=O)CCN(C)C)c1ccccc1CC2 [CBK278193C],100%
17,CC1CCCN(C(=O)CN2C3CCC2CC(O)(c2ccco2)C3)C1 (stereo not shown) [CBK284095],96.3237%
18,CCOc1ccc(C(=O)N2CC(C(N)=O)CCC2C)cn1 (stereo not shown) [CBK305770],123.673%
19,O=C(/C=C/c1ccccc1Cl)NCCc1ccccc1 [CBK261794],121.607%
20,CC(=O)N1CCc2c([nH]c3ccccc23)C12CCCN(CCC#N)C2 (stereo not shown) [CBK039665],126.332%
21,COc1nccc(N2CCN(C(=O)C3CC3)CC(O)C2)c1C#N (stereo not shown) [CBK306613],124.027%
22,O=C(NCc1ccc(Cl)cc1)c1cn(-c2ccccc2)c2ccc(CN3CCOCC3)cc2c1=O [CBK018481],112.49%
23,COc1ccc(CN2CCCN(c3nccc(OCc4cc(C)on4)n3)CC2)cc1 [CBK083911],113.738%
24,Cc1c(C(=O)O)sc2nc(SC/C=C/c3ccccc3)nc(N)c12 [CBK300523],133.747%
25,CC(NS(=O)(=O)c1ccc(OCC(=O)N2CCc3ccccc3C2)c(Cl)c1)c1ccccc1 (stereo not shown) [CBK269117],124.967%

# A second format for part of the listing above:
row	Structure (SMILES)	% of control remaining
2	CCCn1c(O)cc(=O)nc1SCC(=O)N1CCCc2ccccc21 [CBK304977]	130.649%
3	Cc1nnc(N2C(=O)c3oc4ccccc4c(=O)c3C2c2ccc(OCc3ccccc3)cc2)s1 (stereo not shown) [CBK266287]	156.154%
4	Cc1cc(C(=O)N2CCC(C(=O)NC(c3cnccn3)c3ccccc3C)CC2)no1 (stereo not shown) [CBK059810]	102.074%
5	CC(=O)NCCn1nc(-c2ccccc2F)cc1CN(C)C [CBK283473]	119.407%
13	O=C(N/N=C/c1cc2c(cc1Cl)OCO2)C(O)c1ccccc1 (stereo not shown) [CBK262177]	100.487%
14	Cc1ccc(-c2nc3ccccc3[nH]2)cc1NC(=O)CSc1ccc(Cl)cc1 [CBK268942]	166.038%
16	CCOC(=O)Nc1ccc2c(c1)N(C(=O)CCN(C)C)c1ccccc1CC2 [CBK278193C]	100%
19	O=C(/C=C/c1ccccc1Cl)NCCc1ccccc1 [CBK261794]	121.607%
22	O=C(NCc1ccc(Cl)cc1)c1cn(-c2ccccc2)c2ccc(CN3CCOCC3)cc2c1=O [CBK018481]	112.49%
25	CC(NS(=O)(=O)c1ccc(OCC(=O)N2CCc3ccccc3C2)c(Cl)c1)c1ccccc1 (stereo not shown) [CBK269117]	124.967%

# Further results

row,Structure (SMILES),% of control remaining
1,Nc1nc(CSc2nnc(-c3ccccc3O)n2Cc2ccccc2)cs1 [CBK267394],135.724%
2,CC(C)C[C@H](NC(=O)OC(C)(C)C)C(=O)NC[C@H]1CC[C@H](C(=O)O)CC1 [CBK286750],118.523%
3,CSc1nc(N/N=C/c2ccc(Cl)cc2)c2c3c(sc2n1)CN(C)CC3 [CBK262588],110%
4,NCCCNc1ncc(C(=O)NCc2ccccc2)c(NCC2CCCCC2)n1 [CBK215386],40.2851%
5,Cc1c(NC(=O)C2CN(S(=O)(=O)c3ccccc3)CCN2S(=O)(=O)c2ccccc2)c(=O)n(-c2ccccc2)n1C (stereo not shown) [CBK264138],100%
6,CCc1ccc(CNC(=O)Cn2nnc(-c3ccc(C(C)N4CCC(C)CC4)cc3)n2)cc1 (stereo not shown) [CBK164199T],93.07%
7,O=C(Nc1cc(-c2nc3ncccc3o2)ccc1Cl)c1ccco1 [CBK269730],109.832%
8,COc1ccc(Cl)cc1NC(=O)C1CN(S(=O)(=O)c2ccccc2)CCN1S(=O)(=O)c1ccccc1 (stereo not shown) [CBK264000],96.6537%
9,COc1ccc(Cl)cc1N1CCN(Cc2ccc(OC(F)(F)F)cc2)CC1 [CBK126405],105.632%
10,CCOc1cc(C(=O)O)ccc1OCCOc1cccc(C)c1 [CBK299781],144.637%
11,Cn1ncc2c1CCCC2NC(=O)N(CCO)Cc1ccccc1 (stereo not shown) [CBK306293],165.699%
12,Cc1cc(CC(=O)Nc2ccc3[nH]ccc3c2)on1 [CBK159690],109.85%
13,c1ccc(COc2ccc(-c3cc(Nc4ccc5[nH]ccc5c4)ncn3)cc2)cc1 [CBK090857],106.29%
14,O=C(c1ccc(-n2ccnc2)c(-n2cccc2)c1)N1CCCCCC1 [CBK284813],151.483%
15,Cc1ccc(S(=O)(=O)NCCSc2ccc(Cl)cc2)cc1[N+](=O)[O-] [CBK264126],78.8677%
16,c1ccc(Cn2c(CN3CCCCC3)nc3ccccc32)cc1 [CBK269237],129.614%
17,Cc1c(S(=O)(=O)Nc2cc(C(F)(F)F)ccc2N2CCOCC2)cnn1-c1ccccc1 [CBK062551],99.5713%
18,O=C(CC1(C(F)(F)F)NCCN1)c1ccco1 [CBK022373],166.314%
19,CN(Cc1ccccc1N1CCOCC1)C(=O)c1ccc2ncsc2c1 [CBK296692],131.086%
20,CN(C)c1ccc(-c2nccnc2NS(=O)(=O)c2ccc3ccccc3c2)cc1 [CBK050794],99.6961%
21,Cn1cc(-c2nccnc2OCCN2CCCC2=O)cn1 [CBK107068],112.769%
22,Cc1ccc(N2C(=O)c3ccc(C(=O)c4ccc(C(=O)O)cc4)cc3C2=O)cc1 [CBK287164],100.639%
23,CCN(Cc1ccncc1)C(=O)NCCOc1ccccc1 [CBK155148],178.545%
24,CCCNC(=O)c1nn2c(c1Cl)NC(c1cccs1)CC2C(F)(F)F (stereo not shown) [CBK307177],95.6259%
